Reference: PubChem BioAssay AID743266 (National Center for Advancing Translational Sciences (NCATS), 2014)
The campaign covered roughly 410,000 compounds. About 310 (0.076%) were called active. The inconclusive results got no clear call from the source; some entries with a clear call stand among them for comparison. The call rests on the fitted dose curve; in most records, active means well fitted activation curve with a large enough effect; inconclusive means small, poorly fitted or top-dose-only effect, or another doubt; inactive means no such curve, though single readings can be large or run the other way. Potencies beside an inconclusive call are fits to weak or partial responses and may not hold up.

Protein sequences, listed by entry. Tags and fused reporters are not part of them.
UniProt Q03431, whole entry, looked up: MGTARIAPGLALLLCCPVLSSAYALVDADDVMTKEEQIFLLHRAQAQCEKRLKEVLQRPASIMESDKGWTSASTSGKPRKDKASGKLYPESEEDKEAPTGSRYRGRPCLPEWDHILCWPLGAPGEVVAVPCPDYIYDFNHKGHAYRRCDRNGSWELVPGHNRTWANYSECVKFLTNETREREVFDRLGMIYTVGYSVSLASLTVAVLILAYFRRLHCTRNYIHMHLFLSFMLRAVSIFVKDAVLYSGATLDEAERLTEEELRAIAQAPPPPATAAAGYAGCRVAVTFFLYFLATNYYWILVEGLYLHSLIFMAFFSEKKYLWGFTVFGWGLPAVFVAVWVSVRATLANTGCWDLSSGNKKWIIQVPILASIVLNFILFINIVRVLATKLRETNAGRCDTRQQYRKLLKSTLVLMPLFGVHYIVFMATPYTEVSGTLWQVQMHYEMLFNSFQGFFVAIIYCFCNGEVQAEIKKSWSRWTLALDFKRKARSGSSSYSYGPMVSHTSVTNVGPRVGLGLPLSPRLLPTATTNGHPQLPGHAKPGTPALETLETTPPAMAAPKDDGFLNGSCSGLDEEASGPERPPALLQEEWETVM

Biological target: Parathyroid hormone/parathyroid hormone-related peptide receptor (Homo sapiens) (UniProt Q03431)
Assay: qHTS for PTHR1 Agonists: Primary Screen; further: nearly all actives have a fitted effect of over 55% in size
Conditions: HEK293 GP2 PTHR1 cells, GloSensor cAMP luminescence, 1 h; activation: at 115 µM (top of the series) unless noted; series mostly up to 115 µM
Procedure, shortened: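 HEK-293-derived GP2 cells expressing PTHR1 and a GloSensor cAMP reporter, 3,000/well, plated overnight, given luciferin plus IBMX (each 0.5 mM as added) for 1 h at 37 °C, then compound for 1 h at 37 °C. Luminescence was read after 15 min at room temperature.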
Potency means the concentration at half of the fitted maximal effect.

Structure (SMILES)	Potency	activation
O=C1CS(=O)(=O)C2(C(=O)N(Cc3cccc(F)c3)c3ccccc32)N1c1ccccc1 (stereo unspecified)	inactive	
O=C(Nc1ccccc1O)/C(=C\c1ccccc1)NC(=O)c1ccccc1	inconclusive: 35.5 µM [activator, partial curve, poor fit]	
O=C(CCC(=O)N1Cc2ccccc2Oc2ncccc21)Nc1ccc(Cl)cc1	inconclusive: 1.78 µM [activator, full curve, poor fit]	
O=C(CSc1nnc(Cn2nnc3ccccc32)o1)N(Cc1ccc(F)cc1)c1ccccc1	inactive	
Cc1ccc(S(=O)(=O)N2CCN(C(=O)CCCOc3cccc(C)c3)CC2)cc1	inactive	
O=C(NCCc1ccc(Cl)cc1)C1CCN(c2ncnc3c2nc2n3CCCCC2)CC1	inconclusive: 20 µM [activator, single point]	
CCCCCn1c(N)c(-c2nc3ccccc3s2)c2c([N+](=O)[O-])nn(CC)c(=O)c21	inconclusive: 39.8 µM [activator, single point]	
CCC(c1nnnn1-c1c(C)cccc1C)N1CCN(c2ccc(C(F)(F)F)cc2[N+](=O)[O-])CC1 (stereo unspecified)		inconclusive: 35.9% [activator]
CN(Cc1ccco1)C(=O)c1ccc2c(c1)N(Cc1ccccc1F)C(=O)c1ccccc1S2	inactive	
O=C(Nc1ccc2oc(-c3ccc(O)c(Br)c3)nc2c1)c1cc2ccccc2o1	inconclusive: 50.1 µM [activator, partial curve, poor fit]	
CCCc1n[nH]c2c1/C(=N\OCC)CC(C)(C)C2	inconclusive: 126 µM [activator, single point]	
COc1cc(CN(CC2CCCO2)C(=O)c2ccco2)cc(OC)c1OC (stereo unspecified)	inconclusive: 44.7 µM [activator, partial curve, poor fit]	
COc1cccc(-c2nnc3sc(C4CCCCC4)nn23)c1	inconclusive: 7.08 µM [activator, single point]	
O=C(Nc1ccc(F)cc1)c1ccccc1NC(=O)C1CC=CCC1C(=O)O (stereo unspecified)	inconclusive: 50.1 µM [activator, partial curve, poor fit]	
CN(C)P(=NC(=O)COc1ccc(Cl)cc1Cl)(N(C)C)N(C)C		inconclusive: -25.5% [activator]
O=C(COc1ccccc1Cl)OCc1cc(=O)n2nc(-c3cccs3)sc2n1	inactive	
NC(=O)COC(=O)c1cc(S(=O)(=O)N2CCOCC2)ccc1N1CCCCC1	inconclusive: 126 µM [activator, single point]	
CCOC(=O)c1c2n(c3c(NCc4ccccc4)ncnc13)CCCC2	inconclusive: 15.8 µM [activator, full curve, poor fit]	
O=C(OCc1nnc(-c2ccccc2)o1)C1CC(=O)N(Cc2ccco2)C1 (stereo unspecified)	inconclusive: 1.58 µM [activator, full curve, poor fit]	
CN(C(=O)c1cccc(S(=O)(=O)N2CCOCC2)c1)c1c(N)n(Cc2ccccc2)c(=O)[nH]c1=O	inconclusive: 126 µM [activator, single point]	
CN(Cc1ccc(F)cc1)C(=O)c1cccc(S(=O)(=O)N2CCN(Cc3ccccc3)CC2)c1	inactive	
O=C(NCc1nnc(SCC(=O)N2CCCCCC2)o1)c1ccco1		inconclusive: -12.6% [activator] [at 57.5 µM]

Structure (SMILES)	Potency	activation
CC(=O)Nc1c(C(=O)N2CCCCCC2)cnn1-c1ccccc1Cl	inconclusive: 35.5 µM [activator, single point]	
CCOC(=O)c1c(NC(C)=O)sc2c(OCC(O)CN(CC)CC)c(Br)ccc12 (stereo unspecified)	inconclusive: 0.86 µM [activator, full curve, poor fit]	
O=C(NC(CC(=O)N1CCN(c2ccccc2O)CC1)c1ccccc1)c1ccccc1Cl (stereo unspecified)	inconclusive: 31.6 µM [activator, single point]	
COc1ccc(OC)c(C(c2nnnn2Cc2ccccc2)N2CCN(C3CCCCC3)CC2)c1 (stereo unspecified)	inconclusive: 70.8 µM [activator, single point]	
Cc1nn(CC(=O)NCc2ccccc2Br)c(=O)c2cc3occc3n12	inconclusive: 126 µM [activator, single point]	
CN(C)CCCN1c2ccccc2Sc2ccc3ccccc3c21	inactive	
Cc1[nH]c2ccccc2c1C(=O)CN1CC(C)OC(C)C1 (stereo unspecified)	inactive	
O=C(Nc1ccc(S(=O)(=O)NC2=NCCCCC2)cc1)c1ccc(=O)[nH]c1	inconclusive: 11.2 µM [activator, single point]	
C=CCCC(=O)Nc1nc(C)c(-c2csc(Nc3cc(OC)ccc3OC)n2)s1	inconclusive: 158 µM [activator, single point]	
CCCN(C(=O)c1ccc(-n2cncn2)c([N+](=O)[O-])c1)C1CCS(=O)(=O)C1 (stereo unspecified)		inconclusive: 49.7% [activator]
Cc1cccc(N2CCN(C(=O)C3CC(=O)N(C4CCCC4)C3)CC2)c1C (stereo unspecified)		inconclusive: -32.8% [activator]
COc1ccc(-c2nnc(SCC(=O)N/N=C/c3ccccc3C(=O)O)n2-c2ccc(Cl)cc2)cc1	inconclusive: 126 µM [activator, single point]	
CCCCCCC(=O)Nc1nc(C)c(-c2csc(Nc3cc(OC)ccc3OC)n2)s1	inconclusive: 100 µM [activator, partial curve, poor fit]	
Cc1ccc(CNC(=O)C2CCN(c3ncnc4c3nc3n4CCCCC3)CC2)cc1	inconclusive: 158 µM [activator, single point]	
CC1CCN(CC(=O)N2c3ccccc3CCc3ccccc32)CC1		inconclusive: -53.2% [activator] [at 57.5 µM]
CCOc1ccc(S(=O)(=O)Nc2cccc(Cl)c2)cc1	inconclusive: 4.47 µM [activator, partial curve, poor fit]	
O=C(Nc1cccc(C(F)(F)F)c1)c1cccnc1NCCc1ccccc1	inactive	
O=C(c1cc(-c2ccc(Cl)cc2)on1)N1CCCCCC1	inactive	
CC(C)[N+](C)(C)CC#CC(O)(c1ccccc1)c1ccccc1	inactive	
CCN1C(=O)N[C@@H](c2cccc(F)c2)C(C(C)=O)=C1C	inactive	
Cc1noc(/C=C/N(C)C)c1S(=O)(=O)N(C)Cc1ccc(F)cc1		inconclusive: -91.4% [activator]
C#CCOCCOCCOCCNc1nc(N2CCN(C(=O)CCCCCCCCCCNC(=O)[C@H](CO)n3cc(CCCSC)nn3)CC2)nc(N2CCN(C(=O)CCCCCCCCCCNC(=O)[C@H](CO)n3cc(CCCSC)nn3)CC2)n1	inconclusive: 15.8 µM [activator, partial curve, poor fit]	

Structure (SMILES)	Potency	activation
CC1CCN(C(=O)c2ccccc2NC(=O)Nc2ccccc2)CC1	inactive	
Cc1cc(NC(=O)CSc2nccn2C)no1	inconclusive: 141 µM [activator, single point]	
CC1CCCCN1CCNC(=O)C1CCN(S(=O)(=O)c2cccc3cccnc23)CC1 (stereo unspecified)		inconclusive: 31.2% [activator]
Cc1nn(CCCC(=O)NCc2ccc(F)cc2)c(C)c1[N+](=O)[O-]	inactive	
O=C(CN1CCCC1)NN=C(c1ccccc1)c1ccccc1	inconclusive: 5.01 µM [activator, partial curve, poor fit]	
O=C(Nc1cccc(-c2cscn2)c1)C1CCN(Cc2ccsc2)CC1	inconclusive: 25.1 µM [activator, partial curve, poor fit]	
CC(C)CN(Cc1c(O)ccc2c(=O)c(-c3ccccc3)coc12)CC(C)C	active: 35.5 µM	
CCN(CC)CCCNC(=O)CNC(=O)c1nn(-c2ccc(OC)cc2)c(=O)c2ccccc12		inconclusive: 53.7% [activator]
C=CCc1cc(OC)ccc1OCC(O)CN1CCN(c2ccc(OC)cc2)CC1 (stereo unspecified)	inactive	
Cc1ccc(-n2c(SCc3cc(=O)n4ccsc4n3)nnc2-c2cccnc2)c(C)c1	inconclusive: 39.8 µM [activator, single point]	
Cc1onc(-c2ccccc2Cl)c1C(=O)NCc1nc(-c2ccc(C(F)(F)F)cc2)no1	inactive	
COc1ccccc1NS(=O)(=O)c1cccc(C(=O)NN)c1	inconclusive: 35.5 µM [activator, single point]	
CNc1c([N+](=O)[O-])cnn1-c1ccccn1	inactive	
Cc1cc(C)nc(NS(=O)(=O)c2ccc(NC(=O)c3ccc4c(c3)OCCO4)cc2)n1	inconclusive: 50.1 µM [activator, partial curve, poor fit]	
O=C(COC(=O)CSc1ccccc1)NNC(=O)c1ccc([N+](=O)[O-])cc1		inconclusive: 42.6% [activator]
Cc1ccc(-c2nnc3ccccc3c2C(=O)Nc2cccc(C(F)(F)F)c2)cc1	inconclusive: 112 µM [activator, single point]	
CC(C)OC(=O)c1c(NC(=O)c2cc3nc(-c4ccccc4)cc(C(F)(F)F)n3n2)sc2c1CCCC2	inconclusive: 50.1 µM [activator, single point]	
Cc1ccc(S(=O)(=O)N(C)CC(=O)OCC(=O)Nc2ccccc2)cc1		inconclusive: 43.8% [activator]
CCc1ccccc1NC(=O)CSc1nnc(-c2ccncc2)o1	inconclusive: 126 µM [activator, single point]	
O=C(COc1ccc(Br)cc1Br)NC(=O)NC1CCCC1	inactive	
C[C@H](CO)N1C[C@H](C)[C@@H](CN(C)Cc2ccccc2)Oc2c(NS(=O)(=O)c3ccc(F)cc3)cccc2C1=O	inactive	
COC(=O)c1ccc(NS(=O)(=O)c2ccc3[nH]c4c(c3c2)CCCC4)cc1	inconclusive: 7.08 µM [activator, full curve, poor fit]	

3 entries picked at random from the list so far, as already listed:
Structure (SMILES)	Potency	activation
C[C@H](CO)N1C[C@H](C)[C@@H](CN(C)Cc2ccccc2)Oc2c(NS(=O)(=O)c3ccc(F)cc3)cccc2C1=O	inactive	
O=C(CN1CCCC1)NN=C(c1ccccc1)c1ccccc1	inconclusive: 5.01 µM [activator, partial curve, poor fit]	
CC1CCN(C(=O)c2ccccc2NC(=O)Nc2ccccc2)CC1	inactive	
